Experimental data reported in the supplement of paper PMC10735217.
Where a name gives a salt, the structure may show the parent alone. The list shows a part of the results. This data set is noisy: repeats of one test often differ as much as different tests do.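 In a drug-repurposing library screen, luminescence reads luciferase driven by eight TEAD-binding elements, stably integrated into human kidney-derived cells. Compounds scoring over five robust Z scores above the plate mean are called hits.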

Tested on: HEK293A TEAD-LUC reporter
Test: TEAD-luciferase reporter activity (YAP activation), robust Z score vs plate; higher = stronger YAP/TEAD activation
Conditions: 24 h

Row | Structure (SMILES) | TEAD-luciferase reporter activity (compound concentration: 200 nM) | TEAD-luciferase reporter activity (compound concentration: 2 uM) | TEAD-luciferase reporter activity (compound concentration: 10 uM)
1 | C/C(=C\c1ccccc1)c1ccc2c(c1)C(C)(C)CCC2(C)C [Temarotene] | inactive: -0.657 | inactive: 0.0587 | inactive: -0.365
2 | O=C1[O][Pt]2([NH]CC3(CCOCC3)C[NH]2)[O]C(=O)C12CCC2 [enloplatin] | inactive: 2.12 | inactive: -0.369 | inactive: 2.27
3 | O=C(O)Cc1ccc(C(=O)C2CC2)cc1 | inactive: 0.548 | inactive: 0.0813 | inactive: 1.87
4 | CC(C)c1cc(C(C)C)c(CC(=O)NS(=O)(=O)Oc2c(C(C)C)cccc2C(C)C)c(C(C)C)c1 | inactive: -1 | inactive: 1.63 | inactive: -0.94
5 | CC(=O)NC[C@H]1CN(c2ccc(-c3ccno3)c(F)c2)C(=O)O1 | inactive: -0.899 | inactive: -0.664 | inactive: 0.554
6 | CC(C)(Oc1ccc(Cl)cc1)C(=O)OCCN1CCN(CCCN2c3ccccc3Sc3ccc(C(F)(F)F)cc32)CC1 | inactive: 2.21 | inactive: 2.17 | inactive: -0.526
7 | C=CCN1CCc2nc(N)sc2CC1 [talipexole] | inactive: -1.35 | inactive: 1.86 | inactive: 4.8
8 | O=C(CO)[C@@H](O)[C@H](O)[C@H](O)CO | inactive: 0.872 | inactive: -1.8 | inactive: -0.179
9 | CN1CCC(C(=O)N2Cc3ccccc3CC3(CCCCN3CC3CCNC3)C2)CC1 (configuration not stated) | inactive: -0.294 | – | inactive: -0.0962
10 | O=C(O)c1cc(NCc2c(F)c(F)c(C(F)(F)F)c(F)c2F)ccc1O | inactive: 1.15 | inactive: -1.23 | inactive: 1.13
11 | CSc1ccc(SC(P(=O)([O-])O)P(=O)([O-])O)cc1 | inactive: -1.24 | inactive: 0.456 | inactive: 0.264
12 | CCOC(=O)C1CCN(c2nc(N(C)S(=O)(=O)c3ccc(C)cc3)ccc2[N+](=O)[O-])CC1 | inactive: -1.02 | inactive: -1.85 | inactive: 2.96
13 | O=C1NCc2ccccc2CC12CCCN2Cc1ccccc1Cl (configuration not stated) | inactive: 0.101 | – | inactive: -0.349
14 | Cc1ccc(=O)n(-c2ccccc2)c1 [pirfenidone] | – | inactive: 1.63 | –
15 | Cc1ccc(=O)n(-c2ccccc2)c1 [Pirfenidone] | inactive: 4.69 | – | inactive: -1.24
16 | Cc1ncc2c(c1O)COC2c1ccc(Cl)cc1 (configuration not stated) [cicletanine hydrochloride] | inactive: -0.0815 | inactive: 2.01 | inactive: 0.878
17 | O=C(Nc1cccc2ccccc12)C1CCN(C(=O)Cn2c(=O)sc3ccc(Cl)cc32)CC1 | inactive: -0.158 | inactive: -0.329 | inactive: 4.07
18 | OC[C@H]1O[C@@H](O[C@@H]2[C@@H](CO)O[C@@](O)(CO)[C@H]2O)[C@H](O)[C@@H](O)[C@H]1O [Lactulose] | inactive: 0.608 | inactive: 0.0213 | active: 5.38
19 | C[C@@]12CC[C@@H]3[C@@](CC[C@H]4[C@@]3(C)CCC[C@@]4(C)C(=O)O)(CC1=O)C2 [Isosteviol] | inactive: 2.67 | inactive: 0.408 | inactive: 1.05

Row | Structure (SMILES) | TEAD-luciferase reporter activity (compound concentration: 200 nM) | TEAD-luciferase reporter activity (compound concentration: 2 uM) | TEAD-luciferase reporter activity (compound concentration: 10 uM)
20 | CO[C@@H]1[C@H](OC(=O)/C=C/C=C/C=C/C=C/C(=O)O)CC[C@]2(CO2)[C@H]1[C@@]1(C)O[C@@H]1CC=C(C)C [Fumagillin] | active: 7.01 | inactive: -2.19 | inactive: -1.2
21 | CN(C)CCn1nnnc1SCC1=C(C(=O)O)N2C(=O)[C@@H](NC(=O)Cc3csc(N)n3)[C@H]2SC1 [Cefotiam dihydrochloride hydrate] | inactive: -0.731 | – | inactive: 1.48
22 | CN(C)CCn1nnnc1SCC1=C(C(=O)O)N2C(=O)[C@@H](NC(=O)Cc3csc(N)n3)[C@H]2SC1 [cefotiam] | – | inactive: -0.986 | –
23 | CC(C)(C)C(=O)C(Oc1ccc(Cl)cc1)n1ccnc1 (configuration not stated) [Climbazole] | inactive: 0.887 | inactive: -1.02 | inactive: 1.94
24 | CCOC(=O)CCc1nsnc1OCC(O)CNCC(C)C (configuration not stated) | inactive: -0.181 | inactive: -1.2 | inactive: 0.701
25 | CCOc1ccc(Cc2cc([C@]34OC[C@](CO)(O3)[C@@H](O)[C@H](O)[C@H]4O)ccc2Cl)cc1 [ertugliflozin] | inactive: -1.49 | inactive: -0.863 | active: 5.19
26 | COC(=O)c1ccccc1C(=O)N1CCSC1 | inactive: -0.446 | inactive: 1.32 | inactive: 0.526
27 | Cc1ccc(Cc2cc3c(=O)n([C@H]4CCCC[C@@H]4O)cnc3c3ccccc23)cn1 | inactive: -1.6 | inactive: -0.971 | inactive: 3.45
28 | C=C1/C(=C\C=C2/CCC[C@]3(C)[C@@H]([C@H](C)CC[C@@H](O)C(C)C)CC[C@@H]23)C[C@@H](O)C[C@@H]1O [Tacalcitol] | inactive: -0.709 | inactive: -0.13 | inactive: 3.59
29 | Cc1cccc(C)c1NC(=O)C1(N(C)C)CCN([C@H]2CCCC[C@@H]2O)CC1 | inactive: -0.455 | inactive: -1.37 | inactive: -0.776
30 | CCNCc1nc2c(O)c(Cl)cc(Cl)c2c(=O)n1C | inactive: -0.929 | inactive: -1.78 | inactive: -0.0344
31 | CC1(C)CN(c2cccc[n+]2[O-])c2cc([N+](=O)[O-])ccc2O1 | inactive: -1.67 | inactive: 3.3e-05 | inactive: 4.61
32 | CC(C)OC(Cc1cccc(OC[C@H](F)COc2ccc(Cl)cc2C#N)c1)C(=O)O (some centres not stated) | inactive: -1.38 | inactive: 1.52 | inactive: 0.438
33 | CN1CCC=C(c2nc(N)sc2Cl)C1 | inactive: 4.6 | inactive: -0.442 | inactive: -0.092
34 | Cc1cccc(-c2cccc(CN3CCC(NC(=O)c4ccccc4F)CC3)c2)c1 | inactive: 0.0316 | – | inactive: -0.191
35 | CCCC(=O)c1cnc2c(OCCS(C)=O)cccc2c1Nc1ccccc1C (configuration not stated) | inactive: 0.616 | inactive: -1.9 | inactive: -0.243
36 | C/C=C/C[C@@H](C)[C@@H](O)[C@H]1C(=O)N[C@@H](CC)C(=O)N(C)CC(=O)N(C)[C@@H]([C@@H](C)CC)C(=O)N[C@@H](C(C)C)C(=O)N(C)[C@@H](CC(C)C)C(=O)N[C@@H](C)C(=O)N[C@H](C)C(=O)N(C)[C@@H](CC(C)C)C(=O)N(C)[C@@H](CC(C)C)C(=O)N(C)[C@@H](C(C)C)C(=O)N1C | inactive: -0.758 | inactive: 0.838 | inactive: -0.221
37 | CN(C(=O)C(Cl)Cl)c1ccc(OC(=O)c2ccco2)cc1 [diloxanide furoate] | inactive: -0.468 | inactive: -1.67 | inactive: 0.905
38 | CCCCNC(=O)c1ccc(Cl)cc1O | inactive: -0.702 | inactive: -0.348 | inactive: -1.23

Row | Structure (SMILES) | TEAD-luciferase reporter activity (compound concentration: 200 nM) | TEAD-luciferase reporter activity (compound concentration: 2 uM) | TEAD-luciferase reporter activity (compound concentration: 10 uM)
39 | Cc1ccc2oc(N3CCC(N)CC3)nc2n1 | inactive: -0.685 | inactive: -0.281 | inactive: -1.4
40 | Cc1cncn1CC#CCN1CCCC1=O | inactive: -0.0942 | inactive: 0.768 | inactive: -0.699
41 | Cc1cc(C(=O)NC2CC(C)(C)Oc3nc(-c4ccc(Cl)cc4Cl)c(-c4ccc(Cl)cc4)cc32)n[nH]1 (configuration not stated) | inactive: -1.39 | inactive: -1.2 | inactive: -0.031
42 | COc1ccc(CCNCC(O)COc2ccc(NN=C(C)C)nn2)cc1OC (configuration not stated) [dramedilol] | inactive: -0.759 | inactive: -0.806 | inactive: -1.04
43 | CCNc1c(C)cc(Cc2cnc(N)nc2N)c2cccnc12 | inactive: -1.75 | inactive: 0.314 | inactive: 1.06
44 | COCCc1ccc(OCC(O)CNC(C)C)cc1 (configuration not stated) [metoprolol succinate CDT] | – | inactive: -0.172 | –
45 | COCCc1ccc(OCC(O)CNC(C)C)cc1 (configuration not stated) [metoprolol succinate CDT,SCOLR] | inactive: -1.08 | – | inactive: -0.983
46 | O=S(=O)(c1ccccc1)N(CC(F)(F)F)c1ccc(C(O)(C(F)(F)F)C(F)(F)F)cc1 | inactive: -0.239 | inactive: -0.831 | inactive: 2.87
47 | CC(C)[C@H](N)C(=O)OCCOCn1cnc2c(=O)[nH]c(N)nc21 [valaciclovir] | inactive: -1.55 | inactive: 0.753 | inactive: -2.56
48 | O=C(CC(Cc1ccccc1)C(=O)O)c1ccc(F)cc1 (configuration not stated) | inactive: -1.32 | inactive: 1.82 | inactive: 0.457
49 | C[C@@H]1OC(O)[C@@H](F)[C@H](O)[C@@H]1O (some centres not stated) [2-Fluorofucose] | inactive: 0.472 | inactive: -0.51 | inactive: -0.797
50 | N#C/C(=C1/SC[C@@H](c2ccc(Cl)cc2Cl)S1)n1ccnc1 [luliconazole] | – | inactive: 0.471 | –
51 | N#C/C(=C1/SC[C@@H](c2ccc(Cl)cc2Cl)S1)n1ccnc1 [Luliconazole] | inactive: -2.23 | – | inactive: 0.118
52 | CCCc1c(OCCCSc2nnc(SCC(=O)O)s2)ccc(C(C)=O)c1O | inactive: 0.584 | inactive: -0.997 | inactive: 1
53 | CCOc1ccc(CC(CN(CCN(CC(=O)O)CC(=O)O)CC(=O)O)N(CC(=O)O)CC(=O)O)cc1 (configuration not stated) [Gadoxetate disodium] | active: 5.69 | – | inactive: 3.86
54 | CCOC(=O)Oc1ccc(CCNC(=O)[C@H](CCSC)NC(C)=O)cc1OC(=O)OCC | inactive: -0.0584 | inactive: -0.516 | inactive: -0.907
55 | Fc1cc(F)c(OCc2ccccc2C2CCNCC2)c(F)c1 | inactive: -0.36 | inactive: 2.66 | inactive: 1.68
56 | CCOC(=O)c1c[n+](C)c2n(c1=O)C(C)CCC2 (configuration not stated) | inactive: 0.132 | inactive: -0.123 | inactive: 4.24

Quoted at random: two records from the list, in no set order.
Row | Structure (SMILES) | TEAD-luciferase reporter activity (compound concentration: 200 nM) | TEAD-luciferase reporter activity (compound concentration: 2 uM) | TEAD-luciferase reporter activity (compound concentration: 10 uM)
30 | CCNCc1nc2c(O)c(Cl)cc(Cl)c2c(=O)n1C | inactive: -0.929 | inactive: -1.78 | inactive: -0.0344
54 | CCOC(=O)Oc1ccc(CCNC(=O)[C@H](CCSC)NC(C)=O)cc1OC(=O)OCC | inactive: -0.0584 | inactive: -0.516 | inactive: -0.907
